Data as given in PubChem BioAssay AID1259425 (University of Nebraska Medical Center, 2018).
This is one part, drawn at random, of about 14,000 reagents tested. The record does not give: the time to read-out.

- Assay: 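Seek colon cancer weak points whose silencing resembles KSR1 loss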 (primary screen)
- Cell system: HCT116 human colon cancer cells
- Reagent: siRNA pool against human genes, 50 nM siRNA
- Detection: 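mRNA of six signature genes measured together by branched-DNA assay after 50 nM siRNA pool, blank removed, divided by geometric mean of two housekeeping genes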
- Scale: BNIP3L mRNA: higher = more BNIP3L transcript after knockdown; NDRG1 mRNA: higher = more NDRG1 transcript after knockdown; BNIP3 mRNA: higher = more BNIP3 transcript after knockdown; ALDOC mRNA: higher = more ALDOC transcript after knockdown; ACSL5 mRNA: higher = more ACSL5 transcript after knockdown

no.	gene	BNIP3L mRNA, set 1	NDRG1 mRNA, set 1	BNIP3 mRNA, set 1	ALDOC mRNA, set 1	ACSL5 mRNA, set 1
1	ICAM3 (GeneID 3385)	0.098	0.397	0.226	0.0535	0.178
2	MOCS2 (GeneID 4338)	0.0655	0.198	0.305	0.0308	0.157
3	NOP58 (GeneID 51602)	0.17	0.258	0.508	0.0609	0.201
4	COX7A2P2 (GeneID 1348)	0.114	0.193	0.315	0.0383	0.166
5	AMT (GeneID 275)	0.117	0.354	0.353	0.000197	0.137
6	ARID4B (GeneID 51742)	0.112	0.316	0.309	0.0109	0.124
7	C19orf48P (GeneID 84798)	0.0989	0.318	0.348	0.0151	0.0953
8	CORO1B (GeneID 57175)	0.559	2.16	1.84	0.41	0.234
9	CYP7B1 (GeneID 9420)	0.0607	0.0405	0.226	-0.000194	0.172
10	SLITRK2 (GeneID 84631)	0.158	0.144	0.242	0.0254	0.237
11	WNT10B (GeneID 7480)	0.0553	0.115	0.0962	0.0531	0.146
12	SYT5 (GeneID 6861)	0.207	0.232	0.359	0.0738	0.181
13	ATAD2B (GeneID 54454)	0.0557	0.0751	0.261	0.0175	0.0756
14	KMT5B (GeneID 51111)	0.184	0.311	0.253	0.016	0.267
15	ZZEF1 (GeneID 23140)	0.133	0.114	0.398	0.0685	0.246
16	ARHGAP5 (GeneID 394)	0.0759	0.181	0.308	0.0233	0.106
17	LAPTM4A (GeneID 9741)	0.195	0.558	0.341	0.0576	0.11
18	WFS1 (GeneID 7466)	0.15	0.317	0.443	0.0359	0.323
19	NDRG2 (GeneID 57447)	0.0676	0.0644	0.282	0.0174	0.0821
20	DKK2 (GeneID 27123)	0.129	0.206	0.148	0.0207	0.201
21	NUMA1 (GeneID 4926)	0.118	0.296	0.489	0.0153	0.105
22	AP5Z1 (GeneID 9907)	0.0987	0.351	0.212	0.0254	0.105
23	TAAR8 (GeneID 83551)	0.132	0.125	0.326	0.0302	0.143
24	RAB6C (GeneID 84084)	0.0775	0.113	0.222	0.0152	0.116
25	URGCP (GeneID 55665)	0.0507	0.141	0.296	0.0141	0.212
26	ZKSCAN8 (GeneID 7745)	0.143	0.194	0.432	0.0565	0.18
27	IFNA5 (GeneID 3442)	0.077	0.0902	0.269	0.026	0.0761
28	NDRG4 (GeneID 65009)	0.226	0.285	0.366	0.0427	0.305
29	SIRT2 (GeneID 22933)	0.103	0.346	0.356	0.0242	0.136
30	PRRC2C (GeneID 23215)	0.232	0.307	0.381	0.0272	0.382
31	SLC43A1 (GeneID 8501)	0.142	0.142	0.364	0.0132	0.301
32	COLEC12 (GeneID 81035)	0.102	0.127	0.345	0.0345	0.246
33	PSMC6 (GeneID 5706)	0.181	1.53	0.231	0.0358	0.122
34	PLAG1 (GeneID 5324)	0.0985	0.21	0.297	0.0402	0.251

Not a retest: an excerpt of the list.
no.	gene	BNIP3L mRNA, set 1	NDRG1 mRNA, set 1	BNIP3 mRNA, set 1	ALDOC mRNA, set 1	ACSL5 mRNA, set 1
3	NOP58 (GeneID 51602)	0.17	0.258	0.508	0.0609	0.201
4	COX7A2P2 (GeneID 1348)	0.114	0.193	0.315	0.0383	0.166
